{"sequences": {"note": "By UniProt entry, the sequences of proteins in these tests, tags left out. Where a name states a change or a piece, a line headed by the entry shows the natural chain unless it says otherwise.", "UniProt P51570": "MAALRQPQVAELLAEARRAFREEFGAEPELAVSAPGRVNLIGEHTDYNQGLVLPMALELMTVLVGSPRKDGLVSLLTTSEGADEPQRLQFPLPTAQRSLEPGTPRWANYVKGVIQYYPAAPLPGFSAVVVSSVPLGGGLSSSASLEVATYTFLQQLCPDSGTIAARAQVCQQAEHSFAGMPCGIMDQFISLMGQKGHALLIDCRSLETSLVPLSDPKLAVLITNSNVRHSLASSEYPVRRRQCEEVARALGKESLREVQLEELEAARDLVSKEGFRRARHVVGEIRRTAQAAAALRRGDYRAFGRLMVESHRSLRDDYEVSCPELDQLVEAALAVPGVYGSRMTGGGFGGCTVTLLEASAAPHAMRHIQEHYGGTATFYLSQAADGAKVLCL"}, "source": "PubChem BioAssay AID1347072", "about": "(National Center for Advancing Translational Sciences (NCATS), 2019)", "note": "Out of some 44,000 compounds screened, fewer than 10 were called active. Inconclusive means that the source gave no clear call. Such entries were picked first, then a sample of the others. Calls come from the whole dose curve; as a rule, active = well fitted curve in the direction sought with a large enough effect; inconclusive = small, poorly fitted or top-dose-only effect, or another doubt; inactive = no such curve, though single readings can be large or run the other way. Potencies of inconclusive entries are doubtful fits and often do not repeat.", "data": [{"molecular_target": "Galactokinase (Homo sapiens) (UniProt P51570)", "assay": "qHTS Assay for Inhibitors of Human Galactokinase (GALK): NCGC Sytravon Library Screen;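 for activity, negative = inhibition: plate controls were full GALK reaction for no effect and reaction lacking GALK for full effect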", "settings": "recombinant GALK, Kinase-Glo ATP luminescence, 1 h; series mostly up to 57.5 µM; activity, negative = inhibition: at the top concentration", "method_in_brief": "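Compounds were pinned into ATP buffer, then GALK-galactose mix was added (final 5 nM enzyme, 35 uM ATP, 100 uM galactose, pH 8.0). After 1 h at room temperature, Kinase-Glo Plus was added and luminescence read.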", "values": [{"smiles": "Fc1ccc(Cc2cn3cc(-c4ccc(Cl)cc4)nc3s2)cc1", "Potency": "inconclusive: 25.1 µM [inhibitor, partial curve, poor fit]"}, {"smiles": "COc1ccc2cc(C(=O)NCc3ccc4c(c3)CCN4C(=O)c3ccccc3)[nH]c2c1", "Potency": "inconclusive: 28.2 µM [inhibitor, partial curve, poor fit]"}, {"smiles": "COc1cc(O)ccc1C1CC(=O)Nc2c1c(=O)nc(SCc1ccccc1C)n2C", "note": "(stereo not given)", "Potency": "inconclusive: 39.8 µM [inhibitor, partial curve, poor fit]"}, {"smiles": "COc1ccccc1C(=O)Nc1nc2nc(-c3ccccc3)cc(=O)n2[nH]1", "Potency": "inconclusive: 50.1 µM [inhibitor, partial curve, poor fit]"}, {"smiles": "CCCCNC(=O)Cn1c(=O)cc(C)c2c(C)nn(-c3ccc(CC)cc3)c21", "Potency": "inconclusive: 5.62 µM [inhibitor, partial curve, poor fit]"}, {"smiles": "Cc1ccccc1C(=O)Nc1nnc(SCc2cc(=O)n3ccccc3n2)s1", "activity, negative = inhibition": "inactive: 4.27%"}, {"smiles": "CN(C)S(=O)(=O)N(CC(=O)NCCSCc1ccc(Cl)cc1Cl)c1ccccc1", "activity, negative = inhibition": "inactive: 2.38%"}, {"smiles": "CCS(=O)(=O)N1CCc2cc(C(=O)Nc3cc(C)cc(C)c3)ccc21", "activity, negative = inhibition": "inactive: -0.2%"}, {"smiles": "CCc1ccccc1NC(=O)Cn1nnc(C(=O)NCc2cccc(OC)c2)c1N", "Potency": "inconclusive: 0.316 µM [inhibitor, full curve, poor fit]"}, {"smiles": "Cc1ccc(NC(=O)c2nc(S(C)(=O)=O)ncc2N(Cc2ccco2)Cc2ccco2)cc1", "Potency": "inconclusive: 0.708 µM [inhibitor, full curve, poor fit]"}, {"smiles": "CC(C)Cc1nn2c(=O)cc(COC(=O)c3cccc(NC(=O)c4ccccc4)c3)nc2s1", "Potency": "inconclusive: 0.282 µM [inhibitor, full curve, poor fit]"}, {"smiles": "CCN1C(=O)C(Cc2nc3ccccc3c(=O)n2-c2cccc(C)c2)c2ccccc21", "note": "(stereo not given)", "Potency": "inconclusive: 39.8 µM [inhibitor, partial curve, poor fit]"}, {"smiles": "CN(C)c1ccc(/C=C(\\C#N)c2nc3ccccc3c(=O)[nH]2)cc1", "activity, negative = inhibition": "inactive: 2.24%"}, {"smiles": "CCC(C)n1c(=N)c(S(=O)(=O)c2ccccc2)cc2c(=O)n3ccccc3nc21", "note": "(stereo not given)", "Potency": "inconclusive: 0.631 µM [inhibitor, full curve, poor fit]"}, {"smiles": "COc1ccc(Nc2oc(-c3ccc(COc4ccc(OC)cc4)o3)nc2C#N)cc1", "activity, negative = inhibition": "inactive: 1.09%"}, {"smiles": "CCCN1CCN(CCCNC(=O)c2cnn(-c3ccc(C)cc3)c2-n2cccc2)CC1", "activity, negative = inhibition": "inactive: -0.365%"}, {"smiles": "CCOC(=O)N1CCc2c(sc(NCc3cccs3)c2C(=O)Nc2cc(OC)ccc2OC)C1", "activity, negative = inhibition": "inactive: -3.59%"}, {"smiles": "CCOC(=O)c1ccc2ncc(C(=O)OCC)c(NCCc3ccc(OC)c(OC)c3)c2c1", "activity, negative = inhibition": "inactive: 2.81%"}, {"smiles": "COc1ccc(-c2cc(C(F)(F)F)nc(NCc3ccccc3)n2)cc1", "Potency": "inconclusive: 12.6 µM [inhibitor, partial curve, poor fit]"}, {"smiles": "O=C(Nc1ccc(Br)cc1)c1ccc(Br)c(S(=O)(=O)N2CCCCC2)c1", "Potency": "inconclusive: 0.251 µM [inhibitor, full curve, poor fit]"}, {"smiles": "CC(C)(C)c1ccc(S(=O)(=O)c2cnc(SCC(=O)Nc3ccc(F)c(Cl)c3)[nH]c2=O)cc1", "Potency": "active: 20 µM"}, {"smiles": "COc1ccc(CCNC(=O)CCn2c(=O)c3ccccc3n(Cc3c(C)cc(C)cc3C)c2=O)cc1OC", "Potency": "inconclusive: 28.2 µM [inhibitor, partial curve, poor fit]"}, {"smiles": "CCOc1ccc(NC(=O)c2noc3c2CSc2ccccc2-3)cc1", "Potency": "inconclusive: 1.12 µM [inhibitor, full curve, poor fit]"}, {"smiles": "C[C@@H](NC(=O)CN(c1ccccc1)S(=O)(=O)N(C)C)c1ccccc1", "Potency": "inconclusive: 39.8 µM [inhibitor, partial curve, poor fit]"}, {"smiles": "CCc1ccccc1NC(=O)CC1Sc2ccc(C(F)(F)F)cc2NC1=O", "note": "(stereo not given)", "Potency": "inconclusive: 0.0708 µM [inhibitor, full curve, poor fit]"}, {"smiles": "NS(=O)(=O)c1ccc2nc(NC(=O)COc3ccc(Cl)cc3Cl)sc2c1", "Potency": "inconclusive: 0.708 µM [inhibitor, full curve, poor fit]"}, {"smiles": "Cc1nn(-c2ccc(N3CCCCC3)nn2)c(C)c1CCC(=O)NCc1ccc(Cl)cc1", "Potency": "inconclusive: 7.08 µM [inhibitor, full curve, poor fit]"}, {"smiles": "Cc1cn2c(=O)c(S(=O)(=O)NCc3ccccc3Cl)c(C)nc2s1", "Potency": "inconclusive: 0.794 µM [inhibitor, full curve, poor fit]"}, {"smiles": "Cc1cccc(Oc2ccc3c(c2)Oc2ccccc2NC3=O)c1", "activity, negative = inhibition": "inactive: 8.85%"}, {"smiles": "CC1=C(C(N)=O)C(c2cccc(C)c2)n2nc(-c3cccc(C)c3)nc2N1", "note": "(stereo not given)", "Potency": "inconclusive: 31.6 µM [inhibitor, partial curve, poor fit]"}, {"smiles": "COc1ccc(NC(=O)CSc2nc(-c3ccc(F)cc3)c3cccc(C)c3n2)cc1", "Potency": "inconclusive: 31.6 µM [inhibitor, partial curve, poor fit]"}, {"smiles": "COc1ccc(CCNC(=O)CCc2cn(Cc3ccc(C)cc3)c3ccccc23)c(OC)c1OC", "Potency": "inconclusive: 1.26 µM [inhibitor, partial curve, poor fit]"}, {"smiles": "Cc1cccc(C)c1OCC(=O)Nc1c(C(=O)c2ccc(Br)cc2)oc2ccccc12", "Potency": "inconclusive: 39.8 µM [inhibitor, single point]"}, {"smiles": "Cc1ccc2oc(-c3cc(NC(=O)CC(C)C)ccc3Cl)nc2c1", "activity, negative = inhibition": "inactive: 1.08%"}, {"smiles": "O=c1cc(CSc2n[nH]c(-c3ccccc3)n2)[nH]c2ccccc12", "activity, negative = inhibition": "inactive: -0.304%"}, {"smiles": "CCCCOC(=O)c1cccc(NC(=O)c2cc3ccccc3o2)c1", "activity, negative = inhibition": "inactive: 0.314%"}, {"smiles": "COc1ccc(NC(=O)CSc2cc(-c3ccccc3)nc(C)n2)cc1", "Potency": "inconclusive: 3.55 µM [inhibitor, full curve, poor fit]"}, {"smiles": "CCN(Cc1ccccc1)C(=O)c1cc2c(s1)-c1c(C)cccc1OC2", "Potency": "inconclusive: 1.12 µM [inhibitor, partial curve, poor fit]"}, {"smiles": "CC(=O)Nc1ccc(S(=O)(=O)NCCc2cn3ccsc3n2)cc1", "activity, negative = inhibition": "inactive: -3.94%"}, {"smiles": "CCC(=O)N1CCc2cc(OC)c(OC)cc2C1COc1ccccc1OC", "note": "(stereo not given)", "Potency": "inconclusive: 39.8 µM [inhibitor, partial curve, poor fit]"}, {"smiles": "O=C(Nc1c2c(nn1-c1ccc(Cl)cc1)CS(=O)(=O)C2)c1cccc(F)c1", "Potency": "inconclusive: 3.98 µM [inhibitor, partial curve, poor fit]"}, {"smiles": "O=c1[nH]c(=O)n(C2CCCCC2)c(O)c1C1=Nc2ccccc2SC(c2ccc(Cl)cc2)C1", "note": "(stereo not given)", "activity, negative = inhibition": "inactive: -0.055%"}, {"smiles": "COc1ccccc1NC(=O)C1=C(C)Nc2nnnn2C1c1cc(Br)c(O)c(OC)c1", "note": "(stereo not given)", "Potency": "inconclusive: 39.8 µM [inhibitor, single point]"}, {"smiles": "CCOc1c(CNCCSc2nnnn2C)cccc1OC", "Potency": "inconclusive: 7.08 µM [inhibitor, partial curve, poor fit]"}, {"smiles": "CCCNC(=O)Cn1nc(-c2ccc(C)cc2)c2cnc3ccc(CC)cc3c21", "Potency": "inconclusive: 1.12 µM [inhibitor, full curve, poor fit]"}, {"smiles": "COc1ccccc1C1CC(=O)NC(C)=C1C(=O)OC1CCCCCC1", "note": "(stereo not given)", "activity, negative = inhibition": "inactive: -0.0465%"}, {"smiles": "COc1ccc(C2CC(=O)N3CN(C4CCCCC4)CSC3=C2C#N)c(OC)c1", "note": "(stereo not given)", "activity, negative = inhibition": "inactive: -0.0194%"}, {"smiles": "CN(C)c1ccc(CNS(=O)(=O)c2ccc(-c3cc(C(F)(F)F)on3)s2)cc1", "activity, negative = inhibition": "inactive: 0.261%"}, {"smiles": "CCc1ccc(NC(=O)CN2C(=O)c3cccc4cccc2c34)cc1", "Potency": "inconclusive: 35.5 µM [inhibitor, single point]"}, {"smiles": "CN(C)CCCNc1cc(N2CCN(C3CCCCC3)CC2)c2noc3c2c1C(=O)c1ccccc1-3", "activity, negative = inhibition": "inactive: 3.01%"}, {"smiles": "Cc1oc2ncn(C)c(=O)c2c1C(=O)N1CCN(c2cccc(C(F)(F)F)c2)CC1", "activity, negative = inhibition": "inactive: 2.24%"}, {"smiles": "CCN(c1ccccc1)S(=O)(=O)c1nnc(NC(=O)c2ccccc2OC)s1", "Potency": "inconclusive: 35.5 µM [inhibitor, partial curve, poor fit]"}, {"smiles": "O=C(Nc1nc2n(n1)C(c1ccc(F)cc1)C=C(c1ccc(Cl)cc1)N2)c1ccc([N+](=O)[O-])cc1", "note": "(stereo not given)", "Potency": "inconclusive: 0.126 µM [inhibitor, full curve, poor fit]"}, {"smiles": "O=C(CCn1c(=O)c2sccc2n(Cc2ccc(F)cc2Cl)c1=O)NCc1ccc2c(c1)OCO2", "activity, negative = inhibition": "inactive: 5.26%"}, {"smiles": "Cc1ccc2c(c1)c1c3n2CCN(C(=O)c2cccc(C(F)(F)F)c2)C3CCC1", "note": "(stereo not given)", "activity, negative = inhibition": "inactive: 0%"}, {"smiles": "COc1cc(CNCCSc2nnnn2C)ccc1OCc1ccc(Cl)cc1Cl", "Potency": "inconclusive: 7.08 µM [inhibitor, partial curve, poor fit]"}, {"smiles": "Cn1nnnc1SCCNCc1ccc(Cl)c(Cl)c1", "Potency": "inconclusive: 7.08 µM [inhibitor, partial curve, poor fit]"}, {"smiles": "COc1ccc(CNC(=O)c2nn(C)c3c2CS(=O)(=O)c2ccccc2-3)cc1", "Potency": "inconclusive: 7.08 µM [inhibitor, partial curve, poor fit]"}, {"smiles": "O=c1c2ccccc2n2c(-c3ccccc3F)nnc2n1CCc1ccccc1", "Potency": "inconclusive: 1.41 µM [inhibitor, full curve, poor fit]"}, {"smiles": "Cc1cc2c(cc1S(=O)(=O)CCC(=O)N1CCCCC1C)OCC(=O)N2", "note": "(stereo not given)", "activity, negative = inhibition": "inactive: 1.72%"}, {"smiles": "CCCCOC(=O)c1cccc(NC(=O)/C=C/c2ccccc2Cl)c1", "Potency": "inconclusive: 3.55 µM [inhibitor, full curve, poor fit]"}, {"smiles": "Cc1ccc(NC(=O)CSc2ccc(-c3ccccn3)nn2)cc1F", "activity, negative = inhibition": "inactive: 4.64%"}, {"smiles": "Cc1ccc(Cn2ccn(Cc3ccccc3C)c(=O)c2=O)cc1", "Potency": "inconclusive: 28.2 µM [inhibitor, partial curve, poor fit]"}, {"smiles": "COc1ccc(N2CCN(C3=NS(=O)(=O)C(c4cccc(Br)c4)=C3C)CC2)cc1", "activity, negative = inhibition": "inactive: -8.33%"}, {"smiles": "Cc1cn2c(=O)c(S(=O)(=O)NCCc3ccccc3)c(C)nc2s1", "activity, negative = inhibition": "inactive: 5.02%"}]}]}
